{"source": "PubChem BioAssay AID1159538 (Gurdon Institute, 2015)", "aim": "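Survey of all human E2 enzymes for effects on radiation-induced pCHK1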", "cell system": "human U2OS osteosarcoma cells", "reagents": "siRNA against human genes, about 60 nM siRNA", "challenge": "ionising radiation, 10 Gy, cells collected 2 h later", "detection": "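Immunoblot ratio of phospho-CHK1 to total CHK1 after 10 Gy irradiation, given as percent of a luciferase control siRNA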", "scale": "pCHK1/CHK1, % of control: higher = more CHK1 phosphorylation after irradiation", "hit rule": "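a ratio under 60 or over 140 percent of control is called active, in either direction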", "meaning of the calls": "active = pCHK1/CHK1 changed (up or down); inactive = pCHK1/CHK1 near control", "note": "Of all reagents, 20 (48%) got an active call. 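Active includes both rises and falls; each knock-down rests on a single immunoblot, so individual values are noisy.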 The numbers tell different reagents against one gene apart. Not stated in the record: the time to read-out."}
{"target": "UBE2E3 (ubiquitin conjugating enzyme E2 E3)", "siRNA no.": 1, "pCHK1/CHK1, % of control": 79.5, "outcome": "inactive"}
{"target": "UBE2F (ubiquitin conjugating enzyme E2 F (putative))", "siRNA no.": 1, "pCHK1/CHK1, % of control": 80, "outcome": "inactive"}
{"target": "UBE2G2 (ubiquitin conjugating enzyme E2 G2)", "siRNA no.": 1, "pCHK1/CHK1, % of control": 65.4, "outcome": "inactive"}
{"target": "UBE2S (ubiquitin conjugating enzyme E2 S)", "siRNA no.": 1, "pCHK1/CHK1, % of control": 97.2, "outcome": "inactive"}
{"target": "UBE2J2 (ubiquitin conjugating enzyme E2 J2)", "siRNA no.": 1, "pCHK1/CHK1, % of control": 80.2, "outcome": "inactive"}
{"target": "UBE2C (ubiquitin conjugating enzyme E2 C)", "siRNA no.": 1, "pCHK1/CHK1, % of control": 85.5, "outcome": "inactive"}
{"target": "UBE2D2 (ubiquitin conjugating enzyme E2 D2)", "siRNA no.": 1, "pCHK1/CHK1, % of control": 33.2, "outcome": "active"}
{"target": "UBE2E1 (ubiquitin conjugating enzyme E2 E1)", "siRNA no.": 1, "pCHK1/CHK1, % of control": 121, "outcome": "inactive"}
{"target": "UBE2V1 (ubiquitin conjugating enzyme E2 V1)", "siRNA no.": 1, "pCHK1/CHK1, % of control": 82.1, "outcome": "inactive"}
{"target": "RBBP8 (RB binding protein 8, endonuclease)", "siRNA no.": 1, "pCHK1/CHK1, % of control": 79.6, "outcome": "inactive"}
{"target": "UBE2Q1 (ubiquitin conjugating enzyme E2 Q1)", "siRNA no.": 1, "pCHK1/CHK1, % of control": 107, "outcome": "inactive"}
{"target": "UBE2H (ubiquitin conjugating enzyme E2 H)", "siRNA no.": 1, "pCHK1/CHK1, % of control": 58.2, "outcome": "active"}
{"target": "AKTIP (AKT interacting protein)", "siRNA no.": 1, "pCHK1/CHK1, % of control": 59.2, "outcome": "active"}
{"target": "CDC34 (cell division cycle 34, ubiquitin conjugating enzyme)", "siRNA no.": 1, "pCHK1/CHK1, % of control": 47.8, "outcome": "active"}
{"target": "UBE2M (ubiquitin conjugating enzyme E2 M)", "siRNA no.": 1, "pCHK1/CHK1, % of control": 116, "outcome": "inactive"}
{"target": "UBE2Q2 (ubiquitin conjugating enzyme E2 Q2)", "siRNA no.": 1, "pCHK1/CHK1, % of control": 55.8, "outcome": "active"}
{"target": "UBE2Z (ubiquitin conjugating enzyme E2 Z)", "siRNA no.": 1, "pCHK1/CHK1, % of control": 55.7, "outcome": "active"}
{"target": "UBE2D4 (ubiquitin conjugating enzyme E2 D4)", "siRNA no.": 1, "pCHK1/CHK1, % of control": 62.1, "outcome": "inactive"}
{"target": "UBE2R2 (ubiquitin conjugating enzyme E2 R2)", "siRNA no.": 1, "pCHK1/CHK1, % of control": 63.1, "outcome": "inactive"}
{"target": "BIRC6 (baculoviral IAP repeat containing 6)", "siRNA no.": 1, "pCHK1/CHK1, % of control": 104, "outcome": "inactive"}
{"target": "UBE2B (ubiquitin conjugating enzyme E2 B)", "siRNA no.": 1, "pCHK1/CHK1, % of control": 204, "outcome": "active"}
{"target": "UBE2D1 (ubiquitin conjugating enzyme E2 D1)", "siRNA no.": 1, "pCHK1/CHK1, % of control": 56.5, "outcome": "active"}
{"target": "UBE2K (ubiquitin conjugating enzyme E2 K)", "siRNA no.": 1, "pCHK1/CHK1, % of control": 153, "outcome": "active"}
{"target": "UBE2W (ubiquitin conjugating enzyme E2 W)", "siRNA no.": 1, "pCHK1/CHK1, % of control": 58.7, "outcome": "active"}
{"target": "UBE2L6 (ubiquitin conjugating enzyme E2 L6)", "siRNA no.": 1, "pCHK1/CHK1, % of control": 35.3, "outcome": "active"}
{"target": "UBE2L3 (ubiquitin conjugating enzyme E2 L3)", "siRNA no.": 1, "pCHK1/CHK1, % of control": 55.3, "outcome": "active"}
{"target": "UBE2A (ubiquitin conjugating enzyme E2 A)", "siRNA no.": 1, "pCHK1/CHK1, % of control": 201, "outcome": "active"}
{"target": "BRCA1 (BRCA1 DNA repair associated)", "siRNA no.": 1, "pCHK1/CHK1, % of control": 68.7, "outcome": "inactive"}
{"target": "UBE2V2 (ubiquitin conjugating enzyme E2 V2)", "siRNA no.": 1, "pCHK1/CHK1, % of control": 43.8, "outcome": "active"}
{"target": "UBE2D3 (ubiquitin conjugating enzyme E2 D3)", "siRNA no.": 1, "pCHK1/CHK1, % of control": 2.53, "outcome": "active"}
{"target": "UBE2J1 (ubiquitin conjugating enzyme E2 J1)", "siRNA no.": 1, "pCHK1/CHK1, % of control": 60, "outcome": "active"}
{"target": "UBE2T (ubiquitin conjugating enzyme E2 T)", "siRNA no.": 1, "pCHK1/CHK1, % of control": 54.6, "outcome": "active"}
{"target": "UEVLD (UEV and lactate/malate dehyrogenase domains)", "siRNA no.": 1, "pCHK1/CHK1, % of control": 99, "outcome": "inactive"}
{"target": "UBE2E2 (ubiquitin conjugating enzyme E2 E2)", "siRNA no.": 1, "pCHK1/CHK1, % of control": 117, "outcome": "inactive"}
{"target": "UBE2G1 (ubiquitin conjugating enzyme E2 G1)", "siRNA no.": 1, "pCHK1/CHK1, % of control": 90.3, "outcome": "inactive"}
{"target": "TSG101 (tumor susceptibility 101)", "siRNA no.": 1, "pCHK1/CHK1, % of control": 99.8, "outcome": "inactive"}
{"target": "UBE2O (ubiquitin conjugating enzyme E2 O)", "siRNA no.": 1, "pCHK1/CHK1, % of control": 58.6, "outcome": "active"}
{"target": "UBE2N (ubiquitin conjugating enzyme E2 N)", "siRNA no.": 1, "pCHK1/CHK1, % of control": 10.3, "outcome": "active"}
{"target": "UBE2N (ubiquitin conjugating enzyme E2 N)", "siRNA no.": 2, "pCHK1/CHK1, % of control": 63.9, "outcome": "inactive"}
{"target": "UBE2U (ubiquitin conjugating enzyme E2 U)", "siRNA no.": 1, "pCHK1/CHK1, % of control": 117, "outcome": "inactive"}
{"target": "UBE2NL (ubiquitin conjugating enzyme E2 N like (gene/pseudogene))", "siRNA no.": 1, "pCHK1/CHK1, % of control": 50.1, "outcome": "active"}

As entered above.
Under “pCHK1/CHK1, % of control”, TSG101 (tumor susceptibility 101) is entered as 99.8
BRCA1 (BRCA1 DNA repair associated), pCHK1/CHK1, % of control = 68.7
